Data published in article PMC6399291.
Results are given in words; binding and its absence hold for the method and conditions named. In cells and extracts the contact can be indirect. Some results given as binding are weak or reduced against the parent protein; the word gives no strength.

The chains behind the UniProt entries cited, without tags or fusion partners. Where a name states a change or a piece, a line headed by the entry shows the natural chain unless it says otherwise. A line that says so, or that is headed by a name, gives the form on record, which may keep a tag or linker.
UniProt P31946: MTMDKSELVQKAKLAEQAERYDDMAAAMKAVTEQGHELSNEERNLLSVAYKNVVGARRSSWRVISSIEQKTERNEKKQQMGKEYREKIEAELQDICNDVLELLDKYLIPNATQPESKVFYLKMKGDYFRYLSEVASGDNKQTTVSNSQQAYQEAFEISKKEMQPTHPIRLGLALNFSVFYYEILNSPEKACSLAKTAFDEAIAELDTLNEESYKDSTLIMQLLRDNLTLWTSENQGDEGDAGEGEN
UniProt P11802: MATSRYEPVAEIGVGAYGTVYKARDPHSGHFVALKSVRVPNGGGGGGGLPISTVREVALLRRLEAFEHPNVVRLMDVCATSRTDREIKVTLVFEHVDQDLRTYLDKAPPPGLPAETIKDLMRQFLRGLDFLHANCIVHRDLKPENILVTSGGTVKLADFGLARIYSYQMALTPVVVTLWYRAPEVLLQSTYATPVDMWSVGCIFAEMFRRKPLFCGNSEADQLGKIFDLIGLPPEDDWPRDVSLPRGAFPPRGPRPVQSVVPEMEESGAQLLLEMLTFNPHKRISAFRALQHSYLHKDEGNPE
myc-PIKE-A WT (Q99490-2, form named): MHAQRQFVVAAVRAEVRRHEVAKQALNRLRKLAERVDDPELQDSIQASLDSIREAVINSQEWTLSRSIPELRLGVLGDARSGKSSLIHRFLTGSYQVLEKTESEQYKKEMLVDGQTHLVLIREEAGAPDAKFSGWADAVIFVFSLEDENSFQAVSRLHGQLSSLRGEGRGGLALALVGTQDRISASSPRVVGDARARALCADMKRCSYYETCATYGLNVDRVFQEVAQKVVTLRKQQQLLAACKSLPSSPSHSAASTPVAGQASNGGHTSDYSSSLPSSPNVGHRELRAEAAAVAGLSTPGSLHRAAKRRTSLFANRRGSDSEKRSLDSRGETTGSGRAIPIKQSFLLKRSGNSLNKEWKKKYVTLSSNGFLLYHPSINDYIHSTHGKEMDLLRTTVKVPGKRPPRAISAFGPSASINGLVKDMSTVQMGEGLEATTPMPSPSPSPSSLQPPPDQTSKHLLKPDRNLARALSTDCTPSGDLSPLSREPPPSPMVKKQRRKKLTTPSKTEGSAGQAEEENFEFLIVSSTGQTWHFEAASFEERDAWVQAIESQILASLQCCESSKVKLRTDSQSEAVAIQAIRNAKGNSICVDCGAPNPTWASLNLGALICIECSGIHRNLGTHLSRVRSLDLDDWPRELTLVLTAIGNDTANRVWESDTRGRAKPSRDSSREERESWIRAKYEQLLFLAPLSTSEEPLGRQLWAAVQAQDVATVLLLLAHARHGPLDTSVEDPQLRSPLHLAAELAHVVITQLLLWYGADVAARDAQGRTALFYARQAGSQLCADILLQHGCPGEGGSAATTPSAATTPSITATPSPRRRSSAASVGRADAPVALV
myc-PIKE-A S351/377A (Q99490-2, form named): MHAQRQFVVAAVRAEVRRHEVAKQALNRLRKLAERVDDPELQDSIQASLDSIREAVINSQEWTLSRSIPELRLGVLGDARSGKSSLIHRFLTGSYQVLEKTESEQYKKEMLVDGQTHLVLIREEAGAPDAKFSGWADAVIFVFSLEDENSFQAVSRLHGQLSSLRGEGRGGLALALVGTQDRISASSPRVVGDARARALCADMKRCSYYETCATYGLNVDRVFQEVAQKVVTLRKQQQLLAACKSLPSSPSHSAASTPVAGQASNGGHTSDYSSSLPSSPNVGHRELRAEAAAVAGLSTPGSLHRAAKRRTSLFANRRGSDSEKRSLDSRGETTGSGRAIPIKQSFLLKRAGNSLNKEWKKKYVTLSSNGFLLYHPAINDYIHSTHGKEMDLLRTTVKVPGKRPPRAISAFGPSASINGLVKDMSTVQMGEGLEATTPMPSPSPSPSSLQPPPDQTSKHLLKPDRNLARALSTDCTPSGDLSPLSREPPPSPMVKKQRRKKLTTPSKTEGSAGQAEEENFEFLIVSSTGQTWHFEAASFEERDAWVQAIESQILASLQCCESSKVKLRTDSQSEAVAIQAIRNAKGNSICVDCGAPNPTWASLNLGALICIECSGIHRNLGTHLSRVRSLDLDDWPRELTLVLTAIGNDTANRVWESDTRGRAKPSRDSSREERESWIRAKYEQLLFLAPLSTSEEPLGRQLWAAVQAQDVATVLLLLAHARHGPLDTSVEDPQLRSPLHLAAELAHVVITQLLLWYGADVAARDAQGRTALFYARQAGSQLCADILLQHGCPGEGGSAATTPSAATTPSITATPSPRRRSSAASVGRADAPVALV
myc-PIKE-A S351/377D (Q99490-2, form named): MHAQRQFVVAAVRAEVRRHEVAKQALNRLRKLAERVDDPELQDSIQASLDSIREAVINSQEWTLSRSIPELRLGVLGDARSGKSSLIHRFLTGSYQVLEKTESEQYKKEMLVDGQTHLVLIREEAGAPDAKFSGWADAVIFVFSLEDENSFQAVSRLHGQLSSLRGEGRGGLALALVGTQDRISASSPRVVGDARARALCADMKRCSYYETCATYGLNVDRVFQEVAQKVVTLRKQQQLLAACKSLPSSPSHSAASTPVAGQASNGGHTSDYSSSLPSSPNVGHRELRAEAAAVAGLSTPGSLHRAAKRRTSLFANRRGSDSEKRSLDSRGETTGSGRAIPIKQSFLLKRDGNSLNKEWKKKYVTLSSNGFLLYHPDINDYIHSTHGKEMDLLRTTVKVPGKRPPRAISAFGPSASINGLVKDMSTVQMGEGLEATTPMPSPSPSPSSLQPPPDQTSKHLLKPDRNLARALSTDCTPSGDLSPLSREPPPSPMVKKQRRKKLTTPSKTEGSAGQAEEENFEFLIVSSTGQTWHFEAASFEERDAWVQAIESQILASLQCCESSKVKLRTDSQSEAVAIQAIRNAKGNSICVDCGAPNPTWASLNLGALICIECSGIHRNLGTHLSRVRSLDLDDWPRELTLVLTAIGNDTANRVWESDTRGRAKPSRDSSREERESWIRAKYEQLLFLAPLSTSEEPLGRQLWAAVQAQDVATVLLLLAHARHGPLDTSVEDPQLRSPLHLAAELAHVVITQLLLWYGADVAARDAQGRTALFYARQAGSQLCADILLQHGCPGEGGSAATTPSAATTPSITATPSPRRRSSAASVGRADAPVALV

Key:
GFP-14-3-3β [1] = target: GFP-14-3-3β (UniProt P31946); test: co-IP; HEK293 co-transfected with GST-PIKE-A and GFP-14-3-3β; untreated, serum starved 12 h or hypoxia (1% O2) 2 or 12 h; which partner was precipitated is not stated
[2] = target: CDK4 (endogenous, LN229) (human (endogenous in LN229)) (UniProt P11802); test: co-IP; endogenous proteins, LN229 whole cell lysate, with or without 12 h serum starvation (also AICAR, Metformin, A23187 or H2O2); IP with anti-CDK4, blot with anti-PIKE-A
[3] = target: CDK4 (endogenous, LN229) (human (endogenous in LN229)) (UniProt P11802); test: co-IP; endogenous proteins, nuclear fraction of LN229 cells, with or without 12 h serum starvation (also AICAR, Metformin, A23187 or H2O2); IP with anti-CDK4, blot with anti-PIKE-A
GFP-14-3-3β [4] = target: GFP-14-3-3β (UniProt P31946); test: co-IP; HEK293 co-transfected with myc-PIKE-A WT or mutants and GFP-14-3-3β; GFP-14-3-3β immunoprecipitated, blot with anti-myc

| Substance | binding (GFP-14-3-3β [4]) | further results |
| --- | --- | --- |
| GST-PIKE-A WT (from UniProt Q99490-2 1-836) |  | binding (GFP-14-3-3β [1]): binds |
| PIKE-A (endogenous, LN229) (from UniProt Q99490-2 1-836) |  | binding [2]: binds; binding [3]: binds |
| myc-PIKE-A S351/377A (from UniProt Q99490-2 1-836) | binds |  |
| myc-PIKE-A S351/377D (from UniProt Q99490-2 1-836) | binds |  |
| myc-PIKE-A WT (from UniProt Q99490-2 1-836) | binds |  |
